The conditions of the data set: 50 mM glycine in incorporation buffer vs ethanolamine.

Turning to `NCC(=O)O` [glycine], the phasing value result is given as “decreased substantially” and the prephasing value entry is reported as “slight increase”.
